Data on one molecule can be found in article doi:10.1101/2024.03.09.584257.

No constants are given. Whether binding was seen depends on the method and setting.

The target of this assay is T1, Pae Csy complex (Pseudomonas aeruginosa) (UniProt Q02ML9).
T1 sequence 1: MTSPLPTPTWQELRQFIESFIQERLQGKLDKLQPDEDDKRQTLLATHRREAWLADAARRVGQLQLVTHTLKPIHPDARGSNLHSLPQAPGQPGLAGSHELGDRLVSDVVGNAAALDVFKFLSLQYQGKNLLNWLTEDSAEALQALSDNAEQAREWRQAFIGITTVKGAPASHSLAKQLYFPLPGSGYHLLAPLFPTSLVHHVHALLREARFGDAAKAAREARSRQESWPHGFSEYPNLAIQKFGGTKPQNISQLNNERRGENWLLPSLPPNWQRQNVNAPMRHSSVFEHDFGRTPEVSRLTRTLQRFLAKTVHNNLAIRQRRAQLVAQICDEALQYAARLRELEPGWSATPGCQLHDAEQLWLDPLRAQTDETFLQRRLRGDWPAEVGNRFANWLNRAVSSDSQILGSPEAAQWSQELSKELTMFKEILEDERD
T1 sequence 2: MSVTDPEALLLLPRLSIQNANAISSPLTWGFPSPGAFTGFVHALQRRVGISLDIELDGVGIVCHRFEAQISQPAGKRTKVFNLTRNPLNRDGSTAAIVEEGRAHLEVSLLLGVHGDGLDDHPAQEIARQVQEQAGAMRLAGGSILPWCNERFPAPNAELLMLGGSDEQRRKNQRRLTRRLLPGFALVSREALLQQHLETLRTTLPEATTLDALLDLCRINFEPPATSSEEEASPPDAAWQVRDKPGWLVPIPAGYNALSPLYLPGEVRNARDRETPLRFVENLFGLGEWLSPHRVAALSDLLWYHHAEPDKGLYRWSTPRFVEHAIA
T1 sequence 3: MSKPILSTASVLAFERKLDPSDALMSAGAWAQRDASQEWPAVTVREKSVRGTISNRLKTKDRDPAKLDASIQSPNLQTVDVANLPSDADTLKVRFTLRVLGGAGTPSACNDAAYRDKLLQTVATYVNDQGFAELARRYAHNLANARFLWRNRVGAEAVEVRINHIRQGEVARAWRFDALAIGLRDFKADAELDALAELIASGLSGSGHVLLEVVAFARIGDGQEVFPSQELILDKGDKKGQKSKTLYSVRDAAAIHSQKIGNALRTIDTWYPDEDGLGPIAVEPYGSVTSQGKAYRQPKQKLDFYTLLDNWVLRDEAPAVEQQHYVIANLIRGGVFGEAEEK
T1 sequence 4: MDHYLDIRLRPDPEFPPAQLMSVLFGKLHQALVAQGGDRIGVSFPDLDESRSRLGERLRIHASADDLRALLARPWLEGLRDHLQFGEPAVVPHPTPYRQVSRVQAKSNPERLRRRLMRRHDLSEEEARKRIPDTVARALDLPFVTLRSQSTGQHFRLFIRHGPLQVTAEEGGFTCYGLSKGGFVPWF
Nature of the assay: native gel or EMSA. In general terms: Mobility shift assays separate free from complexed probe on a gel.

B1: Pae Cas1 (protein, UniProt Q02ML7 1-324)
chain: MDDISPSELKTILHSKRANLYYLQHCRVLVNGGRVEYVTDEGRHSHYWNIPIANTTSLLLGTGTSITQAAMRELARAGVLVGFCGGGGTPLFSANEVDVEVSWLTPQSEYRPTEYLQRWVGFWFDEEKRLVAARHFQRARLERIRHSWLEDRVLRDAGFAVDATALAVAVEDSARALEQAPNHEHLLTEEARLSKRLFKLAAQATRYGEFVRAKRGSGGDPANRFLDHGNYLAYGLAATATWVLGIPHGLAVLHGKTRRGGLVFDVADLIKDSLILPQAFLSAMRGDEEQDFRQACLDNLSRAQALDFMIDTLKDVAQRSTVSA
Consider B1, for which the binding result is given as “no binding”.
